The values below come from the supplement of paper PMC12819154, “High-throughput peptide-centric local stability assay extends protein–ligand identification to membrane proteins, tissues and bacteria” (Nature Structural & Molecular Biology, 2025).

The chains behind the UniProt entries cited, without tags or fusion partners. Where a name states a change or a piece, a line headed by the entry shows the natural chain unless it says otherwise.
UniProt Q9NZ63: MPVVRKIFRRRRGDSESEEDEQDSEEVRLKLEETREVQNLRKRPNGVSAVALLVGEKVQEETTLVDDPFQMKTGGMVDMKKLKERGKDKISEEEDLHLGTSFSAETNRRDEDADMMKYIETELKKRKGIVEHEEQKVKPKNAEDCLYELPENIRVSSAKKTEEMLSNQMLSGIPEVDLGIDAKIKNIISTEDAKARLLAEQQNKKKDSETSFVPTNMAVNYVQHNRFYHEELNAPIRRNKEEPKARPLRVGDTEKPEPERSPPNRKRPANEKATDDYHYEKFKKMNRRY
UniProt Q9UG01, whole entry: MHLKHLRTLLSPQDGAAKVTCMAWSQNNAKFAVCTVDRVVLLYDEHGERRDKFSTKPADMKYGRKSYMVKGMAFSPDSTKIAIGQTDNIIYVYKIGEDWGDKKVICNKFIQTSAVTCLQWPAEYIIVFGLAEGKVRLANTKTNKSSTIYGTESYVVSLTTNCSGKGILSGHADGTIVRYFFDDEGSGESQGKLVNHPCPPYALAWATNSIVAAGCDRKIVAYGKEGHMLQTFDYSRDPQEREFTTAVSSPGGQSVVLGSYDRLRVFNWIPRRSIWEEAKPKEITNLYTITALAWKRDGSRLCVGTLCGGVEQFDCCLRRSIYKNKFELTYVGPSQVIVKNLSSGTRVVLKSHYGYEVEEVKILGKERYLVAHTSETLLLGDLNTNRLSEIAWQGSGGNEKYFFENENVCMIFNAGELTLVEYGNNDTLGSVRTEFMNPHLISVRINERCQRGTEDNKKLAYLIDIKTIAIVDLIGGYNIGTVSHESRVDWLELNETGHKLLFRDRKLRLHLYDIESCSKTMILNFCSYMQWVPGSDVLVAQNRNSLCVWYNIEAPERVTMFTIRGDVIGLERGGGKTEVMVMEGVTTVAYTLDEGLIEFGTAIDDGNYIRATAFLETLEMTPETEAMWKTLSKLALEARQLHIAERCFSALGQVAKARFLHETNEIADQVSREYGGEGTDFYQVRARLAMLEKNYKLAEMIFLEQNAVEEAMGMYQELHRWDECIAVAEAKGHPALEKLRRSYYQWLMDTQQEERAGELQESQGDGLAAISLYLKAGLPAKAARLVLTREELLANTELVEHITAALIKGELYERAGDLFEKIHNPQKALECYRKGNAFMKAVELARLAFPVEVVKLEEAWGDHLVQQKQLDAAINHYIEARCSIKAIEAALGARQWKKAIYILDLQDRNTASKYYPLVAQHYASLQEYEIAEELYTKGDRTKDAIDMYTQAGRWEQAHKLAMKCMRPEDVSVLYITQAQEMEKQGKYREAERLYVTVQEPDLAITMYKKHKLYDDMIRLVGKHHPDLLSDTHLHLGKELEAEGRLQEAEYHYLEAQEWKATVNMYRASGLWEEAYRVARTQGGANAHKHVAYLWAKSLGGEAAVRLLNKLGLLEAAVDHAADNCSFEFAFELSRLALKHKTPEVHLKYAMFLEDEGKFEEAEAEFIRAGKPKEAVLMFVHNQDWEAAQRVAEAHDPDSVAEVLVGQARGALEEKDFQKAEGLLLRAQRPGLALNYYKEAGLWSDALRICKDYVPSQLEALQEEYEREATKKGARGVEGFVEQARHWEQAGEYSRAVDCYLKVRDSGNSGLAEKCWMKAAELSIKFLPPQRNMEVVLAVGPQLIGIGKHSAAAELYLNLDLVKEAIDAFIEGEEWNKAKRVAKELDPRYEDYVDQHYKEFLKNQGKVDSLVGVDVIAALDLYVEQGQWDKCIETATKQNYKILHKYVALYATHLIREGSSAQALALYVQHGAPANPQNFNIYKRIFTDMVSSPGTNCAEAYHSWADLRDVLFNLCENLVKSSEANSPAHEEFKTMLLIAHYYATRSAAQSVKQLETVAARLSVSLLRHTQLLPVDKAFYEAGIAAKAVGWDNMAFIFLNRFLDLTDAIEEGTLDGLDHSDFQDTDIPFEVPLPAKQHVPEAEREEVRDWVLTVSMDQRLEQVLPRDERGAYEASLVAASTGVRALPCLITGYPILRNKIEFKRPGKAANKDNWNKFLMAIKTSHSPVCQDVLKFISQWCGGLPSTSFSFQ
UniProt Q9UBK8: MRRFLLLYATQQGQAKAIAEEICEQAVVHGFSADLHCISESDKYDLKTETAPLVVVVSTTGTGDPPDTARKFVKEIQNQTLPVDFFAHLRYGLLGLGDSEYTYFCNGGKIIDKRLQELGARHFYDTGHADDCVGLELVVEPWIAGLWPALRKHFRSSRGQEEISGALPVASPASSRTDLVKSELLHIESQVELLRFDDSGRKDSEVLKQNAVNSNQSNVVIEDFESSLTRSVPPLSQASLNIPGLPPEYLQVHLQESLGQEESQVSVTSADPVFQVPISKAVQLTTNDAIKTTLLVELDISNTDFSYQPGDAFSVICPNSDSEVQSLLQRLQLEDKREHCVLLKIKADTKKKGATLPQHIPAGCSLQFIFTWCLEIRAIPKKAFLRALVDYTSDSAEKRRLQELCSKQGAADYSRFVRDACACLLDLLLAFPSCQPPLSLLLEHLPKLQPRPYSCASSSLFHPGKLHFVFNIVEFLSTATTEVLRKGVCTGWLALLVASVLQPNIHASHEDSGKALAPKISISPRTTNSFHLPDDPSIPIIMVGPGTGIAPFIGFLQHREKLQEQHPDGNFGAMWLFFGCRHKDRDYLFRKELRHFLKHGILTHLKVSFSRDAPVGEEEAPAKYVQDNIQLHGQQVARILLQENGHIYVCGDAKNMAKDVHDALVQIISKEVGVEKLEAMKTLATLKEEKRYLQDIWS
UniProt Q9P2R3: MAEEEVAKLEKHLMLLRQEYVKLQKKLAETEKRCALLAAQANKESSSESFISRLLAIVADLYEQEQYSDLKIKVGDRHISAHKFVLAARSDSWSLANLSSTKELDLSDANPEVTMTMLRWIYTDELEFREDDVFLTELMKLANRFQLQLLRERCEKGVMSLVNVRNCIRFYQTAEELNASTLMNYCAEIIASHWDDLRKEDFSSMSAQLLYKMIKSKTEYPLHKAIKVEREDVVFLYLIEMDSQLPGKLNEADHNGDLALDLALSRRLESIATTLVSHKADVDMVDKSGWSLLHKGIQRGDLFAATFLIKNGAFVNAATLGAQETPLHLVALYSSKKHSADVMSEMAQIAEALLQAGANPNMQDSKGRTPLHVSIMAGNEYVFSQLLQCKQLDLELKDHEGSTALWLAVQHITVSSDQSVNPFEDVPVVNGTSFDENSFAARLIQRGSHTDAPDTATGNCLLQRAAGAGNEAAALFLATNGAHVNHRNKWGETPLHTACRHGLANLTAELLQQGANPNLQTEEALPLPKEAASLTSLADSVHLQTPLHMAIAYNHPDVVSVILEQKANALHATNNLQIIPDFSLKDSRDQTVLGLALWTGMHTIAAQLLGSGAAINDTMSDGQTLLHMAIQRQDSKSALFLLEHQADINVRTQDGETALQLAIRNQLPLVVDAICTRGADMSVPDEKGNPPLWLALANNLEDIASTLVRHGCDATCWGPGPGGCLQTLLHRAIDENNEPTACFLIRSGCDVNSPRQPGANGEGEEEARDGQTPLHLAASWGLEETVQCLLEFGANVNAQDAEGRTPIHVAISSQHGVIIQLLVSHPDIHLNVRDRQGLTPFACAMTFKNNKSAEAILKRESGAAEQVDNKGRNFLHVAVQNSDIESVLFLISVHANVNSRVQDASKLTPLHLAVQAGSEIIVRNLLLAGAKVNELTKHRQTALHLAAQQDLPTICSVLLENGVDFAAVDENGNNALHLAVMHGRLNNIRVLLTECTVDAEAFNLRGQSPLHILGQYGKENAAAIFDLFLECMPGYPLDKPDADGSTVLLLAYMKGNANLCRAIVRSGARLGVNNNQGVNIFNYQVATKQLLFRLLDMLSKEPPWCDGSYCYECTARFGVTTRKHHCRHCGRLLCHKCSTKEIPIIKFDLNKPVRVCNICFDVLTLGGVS
UniProt Q9UBT2: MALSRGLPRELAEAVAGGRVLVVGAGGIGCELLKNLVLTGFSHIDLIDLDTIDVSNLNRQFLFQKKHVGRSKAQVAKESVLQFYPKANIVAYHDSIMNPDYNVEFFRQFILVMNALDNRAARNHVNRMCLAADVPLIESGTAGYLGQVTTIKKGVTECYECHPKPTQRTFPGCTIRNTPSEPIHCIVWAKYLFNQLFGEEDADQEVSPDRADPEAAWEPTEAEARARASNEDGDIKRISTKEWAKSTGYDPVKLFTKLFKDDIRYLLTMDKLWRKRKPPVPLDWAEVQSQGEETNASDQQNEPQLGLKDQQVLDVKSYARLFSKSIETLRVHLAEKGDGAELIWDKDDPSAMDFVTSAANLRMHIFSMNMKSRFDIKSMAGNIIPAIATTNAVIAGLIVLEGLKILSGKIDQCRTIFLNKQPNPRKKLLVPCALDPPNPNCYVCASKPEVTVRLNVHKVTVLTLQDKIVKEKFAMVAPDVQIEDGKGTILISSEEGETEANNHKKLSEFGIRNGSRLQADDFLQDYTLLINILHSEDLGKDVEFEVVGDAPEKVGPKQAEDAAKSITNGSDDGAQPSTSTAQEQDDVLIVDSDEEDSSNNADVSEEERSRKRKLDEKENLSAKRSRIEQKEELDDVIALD
UniProt Q9NX04: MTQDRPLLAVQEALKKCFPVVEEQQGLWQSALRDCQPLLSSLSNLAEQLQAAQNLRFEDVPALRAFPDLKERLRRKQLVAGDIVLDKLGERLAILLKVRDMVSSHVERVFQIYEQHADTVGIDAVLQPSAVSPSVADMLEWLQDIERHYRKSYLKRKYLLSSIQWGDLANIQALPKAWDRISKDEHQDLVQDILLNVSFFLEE
UniProt Q9NY97: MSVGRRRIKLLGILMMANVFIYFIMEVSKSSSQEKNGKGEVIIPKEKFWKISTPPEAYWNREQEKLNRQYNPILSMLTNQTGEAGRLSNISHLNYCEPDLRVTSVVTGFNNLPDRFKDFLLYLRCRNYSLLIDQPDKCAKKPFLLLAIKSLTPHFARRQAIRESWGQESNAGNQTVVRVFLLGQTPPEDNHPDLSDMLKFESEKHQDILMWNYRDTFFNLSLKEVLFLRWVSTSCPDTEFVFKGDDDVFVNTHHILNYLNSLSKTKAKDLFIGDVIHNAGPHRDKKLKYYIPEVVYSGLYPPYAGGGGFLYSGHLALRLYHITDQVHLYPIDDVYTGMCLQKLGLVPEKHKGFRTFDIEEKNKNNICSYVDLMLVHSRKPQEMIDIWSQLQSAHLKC
UniProt Q9P2E9: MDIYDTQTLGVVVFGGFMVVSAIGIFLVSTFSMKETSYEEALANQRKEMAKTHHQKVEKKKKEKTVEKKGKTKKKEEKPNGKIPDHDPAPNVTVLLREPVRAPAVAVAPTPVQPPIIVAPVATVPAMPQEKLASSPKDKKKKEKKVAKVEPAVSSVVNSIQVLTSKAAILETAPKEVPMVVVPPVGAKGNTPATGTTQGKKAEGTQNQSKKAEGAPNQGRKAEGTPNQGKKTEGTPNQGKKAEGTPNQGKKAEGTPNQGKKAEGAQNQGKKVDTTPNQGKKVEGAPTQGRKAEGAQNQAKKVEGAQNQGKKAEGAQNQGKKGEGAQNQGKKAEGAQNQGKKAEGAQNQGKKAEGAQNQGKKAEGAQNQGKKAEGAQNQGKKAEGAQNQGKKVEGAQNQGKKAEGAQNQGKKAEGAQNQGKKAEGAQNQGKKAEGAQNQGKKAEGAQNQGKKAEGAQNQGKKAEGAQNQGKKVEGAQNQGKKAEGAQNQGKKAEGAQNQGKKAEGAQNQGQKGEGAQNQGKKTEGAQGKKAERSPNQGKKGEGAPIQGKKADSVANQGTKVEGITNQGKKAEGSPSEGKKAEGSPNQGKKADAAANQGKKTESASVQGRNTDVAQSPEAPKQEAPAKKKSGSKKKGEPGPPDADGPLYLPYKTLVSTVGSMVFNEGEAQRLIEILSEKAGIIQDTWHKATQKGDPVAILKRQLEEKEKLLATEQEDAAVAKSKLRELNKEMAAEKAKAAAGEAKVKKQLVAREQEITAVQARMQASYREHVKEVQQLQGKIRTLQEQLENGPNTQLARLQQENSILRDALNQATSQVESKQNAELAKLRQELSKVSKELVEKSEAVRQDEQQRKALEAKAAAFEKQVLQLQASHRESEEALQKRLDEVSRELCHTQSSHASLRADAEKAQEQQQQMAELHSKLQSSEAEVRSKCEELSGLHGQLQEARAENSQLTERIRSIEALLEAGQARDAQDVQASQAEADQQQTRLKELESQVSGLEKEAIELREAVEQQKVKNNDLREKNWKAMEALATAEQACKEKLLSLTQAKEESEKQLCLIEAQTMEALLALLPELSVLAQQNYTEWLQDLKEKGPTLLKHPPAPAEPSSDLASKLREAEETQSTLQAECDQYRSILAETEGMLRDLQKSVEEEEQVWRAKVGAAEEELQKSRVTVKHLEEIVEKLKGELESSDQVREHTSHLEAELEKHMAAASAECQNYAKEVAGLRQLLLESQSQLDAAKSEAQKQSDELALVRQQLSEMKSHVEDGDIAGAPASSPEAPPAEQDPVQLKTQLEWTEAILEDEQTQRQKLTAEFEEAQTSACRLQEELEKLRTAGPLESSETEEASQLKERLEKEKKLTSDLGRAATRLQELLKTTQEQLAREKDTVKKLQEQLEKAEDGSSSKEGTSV

The other results are listed elsewhere or left out. Most values lie at the level of the controls, where differences are scatter.

Compound in the test: Cc1nc(Nc2ncc(C(=O)Nc3c(C)cccc3Cl)s2)cc(N2CCN(CCO)CC2)n1 [dasatinib]
Briefly: log2 fold change of tryptic peptide abundance, ligand vs vehicle (limited proteolysis) (log2 ratio); higher = more trypsin-susceptible (destabilized). Particulars: ligand concentration: 5 uM; sample: K562 cleared lysate.
Take “DPP3 (peptide sequence: GDYAPILQK, peptide start residue: 249) (UniProt Q9NY33)”: the log2 fold change was 0.262.
As for “HSPBP1 (peptide sequence: YLEAGAAGLR, peptide start residue: 153) (UniProt Q9NZL4)”, the figure is -0.188; as for “C9orf78 (peptide sequence: DEDADMMK, peptide start residue: 110) (UniProt Q9NZ63)”, -0.0764.
As for “ARHGAP28 (peptide sequence: SKHSDYEELLLANTAAHIIR, peptide start residue: 548) (UniProt Q9P2N2)”, the figure is 0.761; as for “IFT172 (peptide sequence: ASGLWEEAYR, peptide start residue: 1067) (UniProt Q9UG01)”, 0.176; as for “ARL15 (peptide sequence: KYFELEPLAR, peptide start residue: 157) (UniProt Q9NXU5)”, 0.435.
Turning to “PPP4R2 (peptide sequence: LQEALKDFEKR, peptide start residue: 6) (UniProt Q9NY27)”, the log2 fold change is -0.0697.
With “CGGBP1 (peptide sequence: VTEFGGELHEDGGK, peptide start residue: 27) (UniProt Q9UFW8)”, the log2 fold change came to 0.377.
As for “MTRR (peptide sequence: FDDSGRKDSEVLK, peptide start residue: 196) (UniProt Q9UBK8)”, the figure is -0.158; as for “ANKFY1 (peptide sequence: AEEEVAKLEK, peptide start residue: 2) (UniProt Q9P2R3)”, 0.207.
For “UBA2 (peptide sequence: STGYDPVK, peptide start residue: 246) (UniProt Q9UBT2)” the value was 0.118.
For “DNAJB11 (peptide sequence: CNCRQEMR, peptide start residue: 169) (UniProt Q9UBS4)” the value was 0.233; for “C1orf109 (peptide sequence: FEDVPALR, peptide start residue: 57) (UniProt Q9NX04)”, -0.0883; for “UniProt Q9UGP5 (peptide sequence: ATNHNLHITEK, peptide start residue: 249)”, -0.719.
As for “MTMR4 (peptide sequence: ELMSQQLK, peptide start residue: 1180) (UniProt Q9NYA4)”, the log2 fold change is -0.352.
For “CXXC1 (peptide sequence: IREDEGAVASSTVK, peptide start residue: 254) (UniProt Q9P0U4)” the value was 0.319; for “VPS29 (peptide sequence: VVTVGQFK, peptide start residue: 74) (UniProt Q9UBQ0)”, 0.201; for “B3GNT2 (peptide sequence: AKDLFIGDVIHNAGPHR, peptide start residue: 267) (UniProt Q9NY97)”, 0.148.
As for “ZNFX1 (peptide sequence: NGHIYVIGDCGGAMER, peptide start residue: 1851) (UniProt Q9P2E3)”, the figure is 0.133; as for “UniProt Q9P2H5 (peptide sequence: AAYISALPTSPHWGR, peptide start residue: 973)”, 0.253.
For “RCOR3 (peptide sequence: IPEFDPGATK, peptide start residue: 11) (UniProt Q9P2K3)” the value was -0.129; for “RRBP1 (peptide sequence: TESASVQGR, peptide start residue: 600) (UniProt Q9P2E9)”, -0.817; for “FBXL17 (peptide sequence: KGAGVPACTPCKQPR, peptide start residue: 200) (UniProt Q9UF56)”, 0.0303.
As to “TMEM9 (peptide sequence: SMAAAAASLGGPR, peptide start residue: 137) (UniProt Q9P0T7)”, the log2 fold change worked out at 0.0938.
For “SIRT5 (peptide sequence: RVVVITQNIDELHR, peptide start residue: 134) (UniProt Q9NXA8)” the value was -0.368; for “GMPR2 (peptide sequence: TVEVPFKGDVEHTIR, peptide start residue: 292) (UniProt Q9P2T1)”, 0.21.
As for “UniProt Q9UHA2 (peptide sequence: GNECVQYQHVLHR, peptide start residue: 44)”, the figure is -0.192; as for “TXNL4B (peptide sequence: VDYGSPDHTK, peptide start residue: 92) (UniProt Q9NX01)”, 0.26.
